Results are given in words; binding and its absence hold for the method and conditions named.
Biological target: GST-Syt-7α fusion protein (full-length Syt-7α) (UniProt Q9R0N7)
Assay: pull-down; GST-Syt-7α immobilised on glutathione-Sepharose beads, incubated with purified His-synprint proteins 1 h at 4°C; TBS-Ca2+ buffering system with 0.1% Triton X-100, free Ca2+ 10 μM to 1 mM; eluted with 15 mM reduced glutathione; anti-His immunoblot; both purified

Sequences of proteins named here, by UniProt entry; tags and fusion partners are left off. A change or cut given only in a name is not applied to a line headed by its entry.
UniProt Q9R0N7: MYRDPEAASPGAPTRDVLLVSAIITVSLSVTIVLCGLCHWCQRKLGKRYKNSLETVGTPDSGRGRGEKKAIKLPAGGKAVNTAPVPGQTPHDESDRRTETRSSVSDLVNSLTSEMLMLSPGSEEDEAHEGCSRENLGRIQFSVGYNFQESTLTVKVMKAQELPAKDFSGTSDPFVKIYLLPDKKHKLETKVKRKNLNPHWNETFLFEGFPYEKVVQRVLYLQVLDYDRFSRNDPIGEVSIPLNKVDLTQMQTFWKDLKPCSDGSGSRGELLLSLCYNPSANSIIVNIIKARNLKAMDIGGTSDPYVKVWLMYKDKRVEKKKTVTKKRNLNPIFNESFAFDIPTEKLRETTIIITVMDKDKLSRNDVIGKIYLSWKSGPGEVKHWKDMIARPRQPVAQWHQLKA
UniProt P15381: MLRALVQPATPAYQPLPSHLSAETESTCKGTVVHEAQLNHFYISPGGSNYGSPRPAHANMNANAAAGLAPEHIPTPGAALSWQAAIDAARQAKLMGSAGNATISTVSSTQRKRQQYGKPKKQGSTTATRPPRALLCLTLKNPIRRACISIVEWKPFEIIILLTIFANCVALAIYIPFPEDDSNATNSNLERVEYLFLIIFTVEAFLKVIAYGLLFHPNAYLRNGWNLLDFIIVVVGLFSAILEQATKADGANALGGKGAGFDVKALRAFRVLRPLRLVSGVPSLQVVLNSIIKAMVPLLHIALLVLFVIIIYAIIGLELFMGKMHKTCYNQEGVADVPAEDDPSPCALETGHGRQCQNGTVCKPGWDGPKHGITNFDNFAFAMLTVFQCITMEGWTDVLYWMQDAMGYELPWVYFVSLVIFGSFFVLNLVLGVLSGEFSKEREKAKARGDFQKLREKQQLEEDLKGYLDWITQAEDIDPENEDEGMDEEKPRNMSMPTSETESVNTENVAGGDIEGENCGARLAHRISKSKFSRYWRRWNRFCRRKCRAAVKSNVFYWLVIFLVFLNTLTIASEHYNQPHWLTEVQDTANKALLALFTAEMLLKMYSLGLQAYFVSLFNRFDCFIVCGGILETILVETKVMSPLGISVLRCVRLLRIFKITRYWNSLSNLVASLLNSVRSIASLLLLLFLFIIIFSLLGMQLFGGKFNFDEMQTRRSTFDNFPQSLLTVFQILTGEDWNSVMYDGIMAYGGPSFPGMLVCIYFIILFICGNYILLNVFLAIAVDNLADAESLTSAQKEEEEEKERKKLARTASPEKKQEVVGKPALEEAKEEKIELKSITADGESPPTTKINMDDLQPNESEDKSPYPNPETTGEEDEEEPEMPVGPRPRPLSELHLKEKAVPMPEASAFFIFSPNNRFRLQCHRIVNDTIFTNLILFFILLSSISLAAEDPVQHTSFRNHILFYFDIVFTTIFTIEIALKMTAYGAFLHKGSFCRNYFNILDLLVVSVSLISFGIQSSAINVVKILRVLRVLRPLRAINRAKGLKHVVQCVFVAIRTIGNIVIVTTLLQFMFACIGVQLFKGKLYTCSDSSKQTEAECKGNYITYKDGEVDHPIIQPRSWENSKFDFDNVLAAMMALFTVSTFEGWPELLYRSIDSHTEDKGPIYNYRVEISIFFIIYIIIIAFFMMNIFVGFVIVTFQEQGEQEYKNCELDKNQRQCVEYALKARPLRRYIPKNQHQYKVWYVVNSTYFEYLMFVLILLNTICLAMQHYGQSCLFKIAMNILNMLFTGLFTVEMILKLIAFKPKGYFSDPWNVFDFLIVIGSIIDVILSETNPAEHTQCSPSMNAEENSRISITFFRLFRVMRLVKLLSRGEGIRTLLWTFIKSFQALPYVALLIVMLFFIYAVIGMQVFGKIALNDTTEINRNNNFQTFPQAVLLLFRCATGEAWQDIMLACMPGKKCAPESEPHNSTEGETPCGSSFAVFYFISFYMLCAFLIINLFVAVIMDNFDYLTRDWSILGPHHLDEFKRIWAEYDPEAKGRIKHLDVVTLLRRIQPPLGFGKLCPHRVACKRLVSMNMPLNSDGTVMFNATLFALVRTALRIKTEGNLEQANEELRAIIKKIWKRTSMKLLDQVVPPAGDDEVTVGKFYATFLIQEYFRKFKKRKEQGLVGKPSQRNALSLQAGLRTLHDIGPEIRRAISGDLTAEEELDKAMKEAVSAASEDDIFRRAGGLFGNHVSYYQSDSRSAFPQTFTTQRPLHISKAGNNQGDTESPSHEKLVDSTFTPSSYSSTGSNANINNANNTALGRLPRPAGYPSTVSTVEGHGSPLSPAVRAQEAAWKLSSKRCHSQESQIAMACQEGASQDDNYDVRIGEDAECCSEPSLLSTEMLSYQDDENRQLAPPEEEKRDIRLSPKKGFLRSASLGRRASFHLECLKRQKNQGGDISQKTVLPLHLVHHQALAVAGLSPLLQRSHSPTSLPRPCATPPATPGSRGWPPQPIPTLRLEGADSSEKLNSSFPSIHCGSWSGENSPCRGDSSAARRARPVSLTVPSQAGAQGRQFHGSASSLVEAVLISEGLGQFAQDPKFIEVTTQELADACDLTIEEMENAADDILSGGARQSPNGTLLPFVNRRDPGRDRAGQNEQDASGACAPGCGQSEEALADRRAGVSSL

His-Cav1.2 synprint (680–800) (from UniProt P15381) (domain or fragment)
binding: no binding

Reference: article PMC9113918
